In patent US11110105B2, “Compounds, composition and uses thereof for treating cancer” (INSTITUT GUSTAVE ROUSSY, priority 2017, dated 2021):
For at least one compound, name, drawing or mass did not settle the structure.

Assays:
[1] = test system: MCA205 globin-SL8-intron tumors; assay: Tumor challenge, MCA205 globin-SL8-intron in immunodeficient Nu/Nu nude mice; format: in vivo, mouse; conditions: 18 mg/kg intraperitoneally
Protocol: (D) MCA205 globin-SL8-intron cells were inoculated subcutaneously on the […] mice flank. […] Tumor size was assessed every 3 to 4 days until day 27. Each line represents the tumor size in area (mm^2) of 6 mice in each group. Data are given as mean ±SEM. *p<0.05, **p<0.01 (ANOVA with Tukey's multiple comparison test comparing all groups). (E) MCA205 globin-SL8-intron cells were inoculated subcutaneously on the Nude nu/nu mice flank. […] Tumor size was assessed every 3 to 4 days until day 27. Each line represents the tumor size in area (mm^2) of 6 mice in each group. Data are given as mean ±SEM. (A) Experimental settings. Growth of (B) sarcoma MCA205 or (C) melanoma B16F10 cells that both stably express the globin-SL8-intron construct or (D) MCA205 Wild Type (WT) or (E) B16F10 WT cells that were subcutaneously inoculated on the flank of immunocompetent C57BL/6 mice injected intraperitoneally with 12 mg/kg or 18 mg/kg of isoginkgetin at days 5, 10 and 15 after inoculation. Tumor size was assessed every 3 to 4 days until reaching the established ethical endpoints. Each line represents the tumor size in area (mm^2) of 6 mice in each group. […] Area of the tumor is recorded every 3 to 4 days until day 27. […] Results are expressed as mean ±SEM. *[…] with Tukey's multiple comparison test comparing all groups).

[2] = test system: H2-K^b expression on A375, A549 and MRC5 cells; assay: Flow cytometry of transiently expressed H2-K^b, human cell lines; format: cell-based
[3] = test system: human lung carcinoma cell line A549; assay: B3Z SL8-specific T-cell activation assay, A549; format: cell-based; conditions: A549 expressing H2-K^b and Globin-SL8-intron, 2,5 μM or 6,25 μM, 18 hours
[4] = test system: splicing of the Globin-SL8-intron gene product in MCA205 cells; assay: qRT-PCR of unspliced/spliced globin-SL8-intron RNA, MCA205; format: cell-based, mouse; conditions: 15 μM isoginkgetin, 35 μM IP2 or 35 μM M2P2, 48 hours
Protocol: RNA was extracted and qRT-PCR was performed with primers amplifying the unspliced (intron) and the spliced (exon) globin-SL8-intron RNA. Data are given as mean ±SEM of the ratio of 2^−ΔΔCt intron and 2^−ΔΔCt exon of at least three independent experiments. […] Data are express as mean ±SEM of the percentage of viable cells compared to the control condition of at least three independent experiments. *P<0.05, **P<0.01, ***P<0.001 (unpaired student t test).
In addition, it has been shown that cancer cells can acquire deficiencies in the splicing machinery that benefit their growth, for example by preventing the expression of tumor suppressor genes.

MCA205 WT tumor = assay: Tumor challenge, MCA205 WT in immunocompetent C57BL/6 mice; format: in vivo, mouse
Protocol: (§1) (A) Experimental settings. Growth of (B) sarcoma MCA205 or (C) melanoma B16F10 cells that both stably express the globin-SL8-intron construct or (D) MCA205 Wild Type (WT) or (E) B16F10 WT cells that were subcutaneously inoculated on the flank of immunocompetent C57BL/6 mice injected intraperitoneally with 12 mg/kg or 18 mg/kg of isoginkgetin at days 5, 10 and 15 after inoculation. Tumor size was assessed every 3 to 4 days until reaching the established ethical endpoints. Each line represents the tumor size in area (mm^2) of 6 mice in each group. Size in area (mm^2) of (F) MCA205 globin-SL8-intron, (G) B16F10 globin-SL8-intron, (H) MCA205 WT or (I) B16F10 WT tumors subcutaneously inoculated on the flank of immunodeficient Nu/Nu Nude mice injected intraperitoneally with 18 mg/kg of isoginkgetin at days 5, 10 and 15 after inoculation. Data are presented at the day before the endpoints are reached.
(§2) Data are given as mean ±SEM. *P<0.05, **P<0.01, ***P<0.001 (unpaired student t test). […] Tumor size was assessed every 3 to 4 days until reaching the established ethical endpoints. […]
(§3) The SL8 peptide has been widely shown to be highly immunogenic in vivo. […] At days 5, 10 and 15 after tumor inoculation, the mice were injected intraperitoneally with a define dose of isoginkgetin, and the tumor growth was monitored (FIG. 9A). […]

B16F10 WT tumor = assay: Tumor challenge, B16F10 WT in immunocompetent C57BL/6 mice; format: in vivo, mouse
Protocol: as §1, §2, §3

[5] = 18 mg/kg intraperitoneally, days 5, 10 and 15 (FIG. 11D)
[6] = 12 and 18 mg/kg intraperitoneally, days 5, 10 and 15

COc1ccc(-c2cc(=O)c3c(O)cc(O)c(-c4cc(-c5cc(=O)c6c(O)cc(O)cc6o5)ccc4OC)c3o2)cc1 [Isoginkgetin, isoginkgetin]
tumor growth ([1]; days 5 and 15): any of the compounds used have an effect on the tumor growth
tumor growth ([1]; days 5 and 15, listed as isoginkgetin): has no effect on the tumor growth
expression of the H2-K^b molecules at the cell surface [2]: stable
intron-derived SL8 antigen presentation (B3Z activation) [3]: causes an increase in intron-PTPs-dependent antigen presentation
intron-derived SL8 antigen presentation (B3Z activation) ([3]; listed as isoginkgetin): increases intron-derived-SL8 antigen presentation
splicing of Globin-SL8-intron RNA (ratio unspliced/spliced, qRT-PCR) [4]: increases the presence of non-spliced RNA products
tumor growth (MCA205 WT tumor; [5]): did not impact tumor growth
tumor growth (MCA205 WT tumor; [6]): No significant reduction
tumor growth (B16F10 WT tumor; [5]): did not impact tumor growth
tumor growth (B16F10 WT tumor; [6]): No significant reduction
